Source: PubChem BioAssay AID1347075 (National Center for Advancing Translational Sciences (NCATS), 2019)
Screen size: about 400,000 compounds; about 5,500 (1.4%) were called active. Inconclusive results, whose numbers are uncertain, are shown with a selection of clear calls. Calls come from the whole dose curve; as a rule, active = well fitted cell-killing curve with a large enough effect; inconclusive = small, poorly fitted or top-dose-only effect, or effect the other way; inactive = flat fitted curve, though single readings scatter. Potencies of inconclusive entries are doubtful fits and often do not repeat.

Experiment: qHTS assay for MDR1-selective chemotherapeutics: Primary screen using the parental adenocarcinoma cell KB-3-1; note: nearly all actives have a fitted effect of over 60% in size
Settings: KB-3-1 viability, CellTiter-Glo ATP luminescence, 72 h; series mostly up to 46.1 µM
In short: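 72 h, 37 °C compound treatment of KB-3-1 parental cells; CellTiter-Glo added, 10 min, luminescence read. Data corrected against DMSO-only plates and normalized before curve fitting.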
Potency is the fitted concentration of half-maximal effect.

**Q.** Which Potency does the source give for `O=C(COC(=O)/C=C/c1ccc(F)cc1)Nc1cccc(S(=O)(=O)N2CCCC2)c1` here?
**A.** The Potency was inconclusive: 20.6 µM [cytotoxic, single point].

**Q.** For `COc1c(O)ccc2c1CN1CCc3cc4c(cc3C1C2)OCO4` (configuration not stated), which Potency is on record?
**A.** The Potency was inconclusive: 23.1 µM [cytotoxic, single point].

**Q.** With `O=c1[nH]c(SCc2ccc(Cl)cc2)nc2ccsc12` as the compound, how does the Potency read?
**A.** The Potency was inconclusive: 2.91 µM [cytotoxic, partial curve, poor fit].

**Q.** For `C#CCCc1cscc1/C=[N+](\[O-])c1ccc(C(=O)OCC)cc1`, which Potency is on record?
**A.** Its Potency is “inactive”.

**Q.** With `COc1ccc(C)cc1NC(=O)C(OC(=O)CNC(=O)c1cccc(F)c1)c1ccccc1` (configuration not stated) as the compound, how does the Potency read?
**A.** Its Potency is inconclusive: 29.1 µM [rising, single point].

**Q.** With `CCc1nc2c(OCc3cc(Cl)cc(Cl)c3)cccn2c1N(C)C(=O)CC(C)C` as the compound, how does the Potency read?
**A.** Its Potency is “inactive”.

**Q.** With `COc1ccccc1Nc1ncc(C(=O)N2CCN(Cc3ccc(OC)c(OC)c3OC)CC2)c2ccccc12` as the compound, how does the Potency read?
**A.** Its Potency is inconclusive: 29.1 µM [cytotoxic, single point].

**Q.** For `O=C(NC1CCCCC1)C(c1ccco1)N(C(=O)c1csnn1)c1cccc(Cl)c1` (configuration not stated), which Potency is on record?
**A.** Its Potency is “inactive”.

**Q.** For `COc1ccc(CN2C(=O)c3cccnc3C2Nc2cc(Cl)c(OC)cc2OC)cc1` (configuration not stated), which Potency is on record?
**A.** Its Potency is inconclusive: 14.6 µM [cytotoxic, partial curve].

**Q.** With `CCNC1=C(Cl)C(=O)c2ccccc2C1=O` as the compound, how does the Potency read?
**A.** The Potency was inconclusive: 29.1 µM [cytotoxic, single point].

**Q.** For `CCN1C(=O)[C@H]2[C@@H](c3ccc(-c4cccc(Cl)c4)cc3)N[C@@](C)(C(=O)OC)[C@H]2C1=O`, which Potency is on record?
**A.** Its Potency is inconclusive: 29.1 µM [cytotoxic, single point].

**Q.** With `Cc1nnc2c(SC(C)C)nc3ccccc3n12` as the compound, how does the Potency read?
**A.** Its Potency is inconclusive: 20.6 µM [cytotoxic, single point].

**Q.** Which Potency does the source give for `CCN(Cc1ccncc1)Cc1nc(-c2ccc(C(=O)OC)cc2)no1` here?
**A.** Its Potency is inconclusive: 0.0073 µM [rising, full curve, poor fit].

**Q.** With `CC1(C)c2[nH]c3ccccc3c2C[C@H]2C(=O)N(Cc3ccc(F)cc3)C(=O)N21` as the compound, how does the Potency read?
**A.** Its Potency is inconclusive: 23.1 µM [cytotoxic, partial curve].

**Q.** Which Potency does the source give for `Clc1nc2c(-c3ccccc3)nnn2c2ccccc12` here?
**A.** Its Potency is inconclusive: 29.1 µM [cytotoxic, single point].

**Q.** With `CNC(=O)c1ccc(CSc2nc3cccnc3n2Cc2cccc(F)c2)cc1` as the compound, how does the Potency read?
**A.** The Potency was inconclusive: 14.6 µM [cytotoxic, partial curve].

**Q.** For `O=[N+]([O-])c1ccccc1OCCCCN1CCCCC1`, which Potency is on record?
**A.** Its Potency is inconclusive: 29.1 µM [cytotoxic, single point].

**Q.** Which Potency does the source give for `CCc1ccc(-c2nc(SCC(=O)NCC3CCCO3)c(-c3ccc(F)cc3)[nH]2)cc1` (configuration not stated) here?
**A.** The Potency was “inactive”.

**Q.** With `CCN1C(=O)/C(=C\C=C2/C=CC=CN2CC)SC1=S` as the compound, how does the Potency read?
**A.** The Potency was inconclusive: 29.1 µM [cytotoxic, single point].

**Q.** Which Potency does the source give for `O=C(N/N=C/c1c(O)ccc2ccccc12)Nc1ccccc1` here?
**A.** The Potency was inconclusive: 20.6 µM [cytotoxic, partial curve, poor fit].

**Q.** For `COC(=O)CCc1c(COC(C)=O)[nH]c(C(=O)OCc2ccccc2)c1C`, which Potency is on record?
**A.** The Potency was inconclusive: 13 µM [rising, partial curve, poor fit].

**Q.** For `C=CCc1ccccc1OCCn1c(C2CC(=O)N(Cc3ccc(F)cc3)C2)nc2ccccc21` (configuration not stated), which Potency is on record?
**A.** Its Potency is inconclusive: 23.1 µM [cytotoxic, partial curve, poor fit].

**Q.** With `COC(=O)c1sc(NC(=O)c2ccc([N+](=O)[O-])o2)c(C#N)c1C` as the compound, how does the Potency read?
**A.** The Potency was inconclusive: 20.6 µM [cytotoxic, partial curve, poor fit].

**Q.** Which Potency does the source give for `Nc1[nH]c(C(=O)c2ccccc2)c(-c2ccc(Cl)cc2)c1C(=O)NCCc1c[nH]c2ccccc12` here?
**A.** The Potency was inconclusive: 29.1 µM [cytotoxic, single point].

**Q.** For `Cn1cc(C(=O)NCC2COc3ccccc3O2)c(=O)c2cc(S(=O)(=O)N3CCCCC3)ccc21` (configuration not stated), which Potency is on record?
**A.** The Potency was “inactive”.

**Q.** With `COc1ccc(NC(=O)Nc2ccc(Br)cn2)cc1` as the compound, how does the Potency read?
**A.** The Potency was inconclusive: 16.4 µM [rising, partial curve, poor fit].

**Q.** With `COc1ccccc1CNC(=O)c1ccc2c(c1)nnn2C1CCCC1` as the compound, how does the Potency read?
**A.** Its Potency is “inactive”.

**Q.** Which Potency does the source give for `CC1CCN(C(=O)CSc2ccc(-c3cccnc3)nn2)CC1` here?
**A.** The Potency was inconclusive: 16.4 µM [rising, partial curve].

**Q.** Which Potency does the source give for `CCOC(=O)COc1cccc2c(=O)n(CC(=O)NCc3ccccc3)ccc12` here?
**A.** The Potency was active: 0.92 µM.

**Q.** For `c1ccc(COc2cccc(-c3cc4nc(NCc5cccs5)ccn4n3)c2)cc1`, which Potency is on record?
**A.** Its Potency is inconclusive: 29.1 µM [cytotoxic, single point].

**Q.** Which Potency does the source give for `CCCn1c(=O)c(C(=O)NCCc2ccccc2)c(O)c2ccccc21` here?
**A.** Its Potency is inconclusive: 29.1 µM [cytotoxic, single point].

**Q.** For `O=C1C=C(c2ccccc2)C(=O)N1Nc1ccccc1`, which Potency is on record?
**A.** The Potency was inconclusive: 29.1 µM [cytotoxic, single point].

**Q.** For `Cc1ccc(NC(=O)c2ccco2)cc1`, which Potency is on record?
**A.** Its Potency is inconclusive: 29.1 µM [cytotoxic, single point].

**Q.** For `O=C(CCn1c(=O)oc2ccc(Cl)cc21)N1CCN(c2ccccc2)CC1`, which Potency is on record?
**A.** The Potency was inconclusive: 6.51 µM [cytotoxic, partial curve].

**Q.** For `CCOC(=O)C1(CC2CC2)CCN(Cc2cnc(-c3ccc(OC)cc3)nc2)CC1`, which Potency is on record?
**A.** Its Potency is inconclusive: 18.4 µM [cytotoxic, single point].

**Q.** For `Cn1c(N)c(C(=O)COC(=O)c2cc(C(F)(F)F)nc3ccccc23)c(=O)n(Cc2ccccc2)c1=O`, which Potency is on record?
**A.** The Potency was inconclusive: 20.6 µM [cytotoxic, single point].

**Q.** With `O=c1c2ccccc2nnn1CCc1ccccc1` as the compound, how does the Potency read?
**A.** Its Potency is inconclusive: 18.4 µM [cytotoxic, single point].

**Q.** For `O=C(CN1CCN(S(=O)(=O)N2CCCCC2)CC1)Nc1cc(Cl)cc(Cl)c1`, which Potency is on record?
**A.** The Potency was “inactive”.

**Q.** For `CC1=C(C(=O)N2CCOCC2)CC(CC(=O)NC(c2ccccc2)c2ccccc2)C(=O)N1Cc1ccc(C(C)(C)C)cc1` (configuration not stated), which Potency is on record?
**A.** The Potency was inconclusive: 29.1 µM [cytotoxic, single point].

**Q.** Which Potency does the source give for `CC1=C(C(=O)OCc2ccc3c(c2)OCO3)C(c2ccccc2)NC(=O)N1` (configuration not stated) here?
**A.** Its Potency is active: 23.1 µM.

**Q.** For `COc1ccc(OCC(O)Cn2c(Br)nc3c2c(=O)[nH]c(=O)n3C)cc1` (configuration not stated), which Potency is on record?
**A.** The Potency was inconclusive: 20.6 µM [cytotoxic, single point].

**Q.** With `Cc1cc(C)n2nc(SCC(=O)N(CCC#N)c3ccc(F)cc3)nc2n1` as the compound, how does the Potency read?
**A.** The Potency was “inactive”.

**Q.** For `O=C(C[n+]1ccc2ccccc2c1)c1ccc(F)cc1`, which Potency is on record?
**A.** The Potency was inconclusive: 23.1 µM [cytotoxic, single point].

**Q.** Which Potency does the source give for `CCOc1ccccc1Oc1coc2cc(OCC(=O)O)ccc2c1=O` here?
**A.** Its Potency is inconclusive: 18.4 µM [rising, single point].

**Q.** For `Cc1nnc(SCC(=O)N2c3ccccc3C(C)(c3ccccc3)CC2(C)C)s1` (configuration not stated), which Potency is on record?
**A.** The Potency was active: 16.4 µM.

**Q.** For `CC1=[N+](C)N(c2ccccc2)C(=O)C1N=Cc1ccccc1Cl` (configuration not stated), which Potency is on record?
**A.** The Potency was inconclusive: 18.4 µM [rising, single point].

**Q.** Which Potency does the source give for `Cc1noc(C)c1CCC(=O)Nc1cc(Cl)ccc1C(=O)O` here?
**A.** Its Potency is “inactive”.

**Q.** With `O=C(C(Cl)Cl)N1c2ccccc2OCC1c1ccccc1` (configuration not stated) as the compound, how does the Potency read?
**A.** The Potency was active: 18.4 µM.

**Q.** For `COc1ccc(OC)c(NC(=O)C(C)n2nc(C)c3c(C)n(-c4ccccc4)nc3c2=O)c1` (configuration not stated), which Potency is on record?
**A.** The Potency was “inactive”.

**Q.** For `CCOc1ccc(S(=O)(=O)N(C(=O)c2ccco2)c2cc3sc(=O)oc3c3ccccc23)cc1`, which Potency is on record?
**A.** The Potency was “inactive”.

**Q.** For `O=C(OCc1ccccc1)N1CCC2CC1c1cc(N3CCNCC3)ccc12` (configuration not stated), which Potency is on record?
**A.** Its Potency is inconclusive: 18.4 µM [cytotoxic, single point].

**Q.** With `O=C(NCc1ccccc1F)C1CC(=O)N(Cc2ccco2)C1` (configuration not stated) as the compound, how does the Potency read?
**A.** The Potency was inconclusive: 20.6 µM [rising, single point].

**Q.** With `COc1ccc(-n2nc(C(=O)NCC(=O)N3CCN(c4ccccc4)CC3)c3ccccc3c2=O)cc1OC` as the compound, how does the Potency read?
**A.** Its Potency is “inactive”.

**Q.** With `COc1cc2c(C#N)c(N3CCCCC3)nc(N)c2c(N)n1` as the compound, how does the Potency read?
**A.** Its Potency is inconclusive: 23.1 µM [cytotoxic, single point].

**Q.** For `CC(C)N1CCc2c(sc(NC(=O)C3CCCCC3)c2C(N)=O)C1`, which Potency is on record?
**A.** The Potency was inconclusive: 20.6 µM [cytotoxic, single point].

**Q.** For `O=C(NCC(=O)N1CCN(c2ccccc2O)CC1)c1cccs1`, which Potency is on record?
**A.** Its Potency is “inactive”.

**Q.** For `CCn1cc(C(=O)N2CCN(c3ccccc3)CC2)c(=O)c2cc(S(=O)(=O)N3CCCC3)ccc21`, which Potency is on record?
**A.** The Potency was “inactive”.

**Q.** Which Potency does the source give for `COc1ccc(CCNC(=O)Cn2c(=O)cnc3ccccc32)cc1` here?
**A.** The Potency was inconclusive: 20.6 µM [cytotoxic, single point].

**Q.** For `C=CCn1c(SCC(=O)Nc2c(C)n(C)n(-c3ccccc3)c2=O)nnc1-c1ccncc1`, which Potency is on record?
**A.** Its Potency is “inactive”.

**Q.** Which Potency does the source give for `CCOc1ccc(N=c2scc(-c3ccc(OC)cc3)n2CCO)cc1` here?
**A.** Its Potency is inconclusive: 2.59 µM [cytotoxic, partial curve, poor fit].

**Q.** For `COc1ccc(C(=O)Nc2ccc(Cl)c(S(=O)(=O)N3CCOCC3)c2)cc1`, which Potency is on record?
**A.** Its Potency is inconclusive: 5.17 µM [cytotoxic, partial curve, poor fit].

**Q.** Which Potency does the source give for `CCCCn1nc(C(=O)Nc2c(C)n(C)n(-c3ccccc3)c2=O)c2ccccc2c1=O` here?
**A.** The Potency was “inactive”.

**Q.** With `CCc1ccc(-c2cc(C)no2)cc1S(=O)(=O)NCCN1CCC(C)CC1` as the compound, how does the Potency read?
**A.** The Potency was inconclusive: 11.6 µM [cytotoxic, partial curve, poor fit].

**Q.** With `COc1ccc(OCCNC(=O)c2cccc(Oc3ccc(C(F)(F)F)cc3[N+](=O)[O-])c2)cc1` as the compound, how does the Potency read?
**A.** Its Potency is inconclusive: 29.1 µM [cytotoxic, single point].

**Q.** With `COC(=O)c1cc(Cl)nc2ccccc12` as the compound, how does the Potency read?
**A.** The Potency was inconclusive: 5.17 µM [rising, single point].

**Q.** Which Potency does the source give for `CC(=O)N1N=C2c3ccccc3CCC2C1c1ccc(F)cc1` (configuration not stated) here?
**A.** The Potency was inconclusive: 29.1 µM [cytotoxic, single point].

**Q.** For `S=c1[nH]nc2nnc3ccccc3n12`, which Potency is on record?
**A.** Its Potency is inconclusive: 29.1 µM [cytotoxic, single point].
